Laboratory results reported in the supplement of paper PMC7411640.
Where a name gives a salt, the structure may show the parent alone. This is one part of the list. Most values lie within the scatter of the assay; repeated measurements hardly agree.

Tested on: MDA-MB-468
Assay: phospho-S6 immunofluorescence (DAPI-normalised), per-plate z-score; higher = higher phospho-S6 signal (less pathway suppression)
Settings: 24 h
Experimental: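 GPCR-targeted compound library (MedChemExpress HY-L006) tested on MDA-MB-468 PTEN-null TNBC cells in 384-well plates at 0.1, 1 or 10 uM, combined with vehicle, GDC0941 450 nM or lapatinib 1 uM, for 24 h. Phospho-S6 (S240/244) immunofluorescence normalised to DAPI and expressed as a per-plate z-score; values are the mean of biological triplicates.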

[1] = compound 0.1 µM, co-treatment: GDC0941 450 nM
[2] = compound 0.1 µM, co-treatment: lapatinib 1 uM
[3] = compound 0.1 µM, co-treatment: vehicle
[4] = compound 1 µM, co-treatment: GDC0941 450 nM
[5] = compound 1 µM, co-treatment: lapatinib 1 uM
[6] = compound 1 µM, co-treatment: vehicle
[7] = compound 10 µM, co-treatment: GDC0941 450 nM
[8] = compound 10 µM, co-treatment: lapatinib 1 uM
[9] = compound 10 µM, co-treatment: vehicle

Compound	phospho-S6 immunofluorescence (z-score) [1]	phospho-S6 immunofluorescence (z-score) [2]	phospho-S6 immunofluorescence (z-score) [3]	phospho-S6 immunofluorescence (z-score) [4]	phospho-S6 immunofluorescence (z-score) [5]	phospho-S6 immunofluorescence (z-score) [6]	phospho-S6 immunofluorescence (z-score) [7]	phospho-S6 immunofluorescence (z-score) [8]	phospho-S6 immunofluorescence (z-score) [9]
C[C@H]1C[C@H]2[C@@H]3CCC4=CC(=O)C=C[C@]4(C)[C@@]3(F)[C@@H](O)C[C@]2(C)[C@@]1(O)C(=O)CO [Betamethasone]	-1.26	1.99	0.01	-2.53	0.9	-3.19	-1.59	1.5	-0.96
Cc1noc(-c2ccc(-c3ccc(CC(=O)O)cc3)cc2)c1NC(=O)O[C@H](C)c1ccccc1	1.49	1.84	0.67	1.26	1.24	0.68	0.62	1.57	0.63
O=C(Nc1ccc(Cl)cc1CN1C(=O)c2ccccc2C1=O)c1ccccc1O	-0.35	0.09	-0.47	0.12	1.63	-0.15	-1.83	-0.3	-0.57
OC[C@H]1O[C@@H](n2cnc3c(N[C@H]4CCC[C@@H]4O)ncnc32)[C@H](O)[C@@H]1O	0.93	0.96	-0.28	1.29	0.69	0.15	0.54	0.82	0.2
c1ccc(CC2=NCCN2)cc1 [Tolazoline (hydrochloride)]	0.34	0.41	0.19	1.31	0.53	1	1.08	0.41	0.92
CCN(CC)CCNC(=O)c1cc(Cl)c(N)cc1OC [Metoclopramide]	0.53	-0.65	0.13	0.15	-0.34	0.08	-0.3	0.63	-0.11
CCCN(CCN1CCN(c2ccccc2OC)CC1)C1CCc2ncsc2C1 (centres undefined) [ST-836 (hydrochloride)]	-0.69	-1.25	-1.13	-0.54	0.04	-2.75	0.29	-0.62	0.1
NC1=NCC2c3ccccc3Cc3ccccc3N12 (centres undefined) [Epinastine]	1.62	1.33	-0.5	1.49	1.11	0.14	-0.05	-0.81	0.35
COC(c1ccccc1)(c1ccccc1)[C@H](Oc1nc(C)cc(C)n1)C(=O)O [Ambrisentan]	1.04	0.25	-0.4	0.57	0.01	0.55	1.18	0.5	-0.07
Cc1nc2ccc(NC(=O)Nc3ccnc4cccnc34)cc2o1	0.46	-0.17	0.65	0.19	-0.21	0.1	0.6	-1.8	0.79
CC(=O)N[C@H](Cc1ccc2ccccc2c1)C(=O)N[C@H](Cc1ccc(Cl)cc1)C(=O)N[C@H](Cc1cccnc1)C(=O)N[C@@H](CO)C(=O)N(C)[C@@H](Cc1ccc(O)cc1)C(=O)N[C@H](CC(N)=O)C(=O)N[C@@H](CC(C)C)C(=O)N[C@@H](CCCCNC(C)C)C(=O)N1CCC[C@H]1C(=O)N[C@H](C)C(N)=O [Abarelix]	-1.23	-1.63	-2.18	-0.88	0.85	-1.04	0.77	0.65	-0.38
COc1ccc2cccc(CCNC(C)=O)c2c1 [Agomelatine]	-0.7	-0.93	-2.35	-0.03	0.16	-1.33	0.97	0.54	0.35
CC(C)NCC(O)c1ccc(O)c(O)c1 (centres undefined) [Isoprenaline (hydrochloride)]	0.91	2.52	1.15	0.47	2.64	1.48	0.63	2.74	1.65
CC(=O)[C@H]1CC[C@H]2[C@@H]3CC=C4C[C@@H](O)CC[C@]4(C)[C@H]3CC[C@]12C [Pregnenolone]	0.85	0.54	1.02	1.23	-0.53	0.66	1.58	1.58	0.85
CC(C)Oc1ccc(-c2nc(-c3cccc4c3CC[C@@H]4NCCO)no2)cc1C#N [Ozanimod]	-1.63	-0.18	0.23	-1.04	0.97	0.48	0.72	-0.62	-0.3
CNC(=C[N+](=O)[O-])NCCSCc1ccc(CN(C)C)o1 [Ranitidine (hydrochloride)]	-0.39	0.35	-0.02	-0.07	0.92	-0.35	0.47	0.54	0.29
Nc1nc(NCCc2ccc(O)cc2)nc2nc(-c3ccco3)nn12	-1.12	0.66	1.88	-0.21	1.98	1.38	-1.88	0.67	1.01
NC(=O)[C@@H]1CCCC[C@@H]1C(=O)Nc1ccc(Cl)c(Cl)c1	-0.07	-0.24	0.81	0.05	0.9	0.57	0.33	-0.14	0.47

One compound at a time, from the list above. Values in the order: phospho-S6 immunofluorescence (z-score) [1] | phospho-S6 immunofluorescence (z-score) [2] | phospho-S6 immunofluorescence (z-score) [3] | phospho-S6 immunofluorescence (z-score) [4] | phospho-S6 immunofluorescence (z-score) [5] | phospho-S6 immunofluorescence (z-score) [6] | phospho-S6 immunofluorescence (z-score) [7] | phospho-S6 immunofluorescence (z-score) [8] | phospho-S6 immunofluorescence (z-score) [9]
NC(=O)[C@@H]1CCCC[C@@H]1C(=O)Nc1ccc(Cl)c(Cl)c1 in the list: -0.07 | -0.24 | 0.81 | 0.05 | 0.9 | 0.57 | 0.33 | -0.14 | 0.47
Cc1nc2ccc(NC(=O)Nc3ccnc4cccnc34)cc2o1 in the list: 0.46 | -0.17 | 0.65 | 0.19 | -0.21 | 0.1 | 0.6 | -1.8 | 0.79

Later entries.

Compound	phospho-S6 immunofluorescence (z-score) [1]	phospho-S6 immunofluorescence (z-score) [2]	phospho-S6 immunofluorescence (z-score) [3]	phospho-S6 immunofluorescence (z-score) [4]	phospho-S6 immunofluorescence (z-score) [5]	phospho-S6 immunofluorescence (z-score) [6]	phospho-S6 immunofluorescence (z-score) [7]	phospho-S6 immunofluorescence (z-score) [8]	phospho-S6 immunofluorescence (z-score) [9]
Cn1c(=O)c2c(ncn2CC(=O)O)n(C)c1=O [Acefylline]	0.29	-0.35	-0.77	0.57	-0.66	-1.07	0.4	0.37	-0.98
CCCN(CCc1cccs1)C1CCc2c(O)cccc2C1 (racemic) [rac-Rotigotine (Hydrochloride)]	-0.31	-0.27	-0.14	-0.44	-0.4	0.41	-0.62	0.67	-0.11
C[C@@H](O)[C@@H]1NC(=O)[C@H](CCCCN)NC(=O)[C@@H](Cc2c[nH]c3ccccc23)NC(=O)[C@H](Cc2ccccc2)NC(=O)[C@@H](NC(=O)[C@H](N)Cc2ccccc2)CSSC[C@@H](C(=O)N[C@H](CO)[C@@H](C)O)NC1=O [Octreotide (acetate)]	-0.9	-0.4	-1.81	-1.28	1.24	-1.74	0.59	1.9	-0.73
CCOC(=O)N1CCC(=C2c3ccc(Cl)cc3CCc3cccnc32)CC1 [Loratadine]	0.15	-0.51	-0.69	-0.55	-1.3	-1.35	-1.77	-0.82	-1.25
OCCOCCN1CCN(C2=Nc3ccccc3Sc3ccccc32)CC1 [Quetiapine]	1.6	0.46	1.37	1.2	1.13	0.05	0.95	-0.32	0.64
CC1(C)O[C@@H]2C[C@H]3[C@@H]4C[C@H](F)C5=CC(=O)C=C[C@]5(C)[C@@]4(F)[C@@H](O)C[C@]3(C)[C@]2(C(=O)CO)O1 [Fluocinolone (Acetonide)]	-1.34	-0.12	1.17	-2.21	0.7	0.44	-0.92	0.83	-0.53
C[C@@H](OC[C@@]1(c2ccccc2)CC[C@]2(CCC(=O)N2)CN1)c1cc(C(F)(F)F)cc(C(F)(F)F)c1 [Rolapitant]	-0.47	0.29	0.77	-0.34	-0.81	1.04	-4.35	-3.8	-0.65
CCCSc1nc(N[C@@H]2C[C@H]2c2ccc(F)c(F)c2)c2nnn([C@@H]3C[C@H](OCCO)[C@@H](O)[C@H]3O)c2n1 [Ticagrelor]	1.97	1.13	1.02	0.34	0.77	1.57	-1.29	0.02	1.13
CC(CN(C)C)CN1c2ccccc2CCc2ccccc21 (centres undefined) [Trimipramine (maleate)]	-0.45	-0.25	-0.16	-1.11	-1.25	-0.14	-1.05	-2.53	-0.39
CCCCC[C@H](O)/C=C/[C@@H]1[C@@H](C/C=C\CCCC(=O)O)[C@@H](O)C[C@H]1O [Dinoprost (tromethamine salt)]	0.02	-0.35	0.18	1.35	-0.45	0.57	-0.07	-0.14	0.98
O=C(Nc1ccc([N+](=O)[O-])cc1O)Nc1ccccc1Br	4.67	6.56	3.81	-2.21	5.62	2.77	-1.44	0.89	-0.39
COc1cc2nc(C3CC3)nc(N3CCN(c4ccccc4OC)CC3)c2cc1OC	0.41	0.54	1.3	0.09	-0.51	0.98	-1.77	-0.08	0.05
CC(C)(Cc1nc(-c2ccc(O)cn2)no1)C(=O)NC1=C(C(=O)O)CCCC1	1.13	1.19	1.12	1.16	0.92	1.09	0.73	0.37	1.12
COc1ccc2c(c1)c(CC(=O)N1CCOCC1)c(C)n2C(=O)c1ccc(Cl)cc1	-1.07	-1.07	-0.01	-3.57	-2.27	0.03	-3.35	-6.12	-6.12
Oc1cc2c(cc1O)C(c1ccccc1)CNCC2 (centres undefined)	0.22	0.66	-0.01	1.17	-0.26	0.97	0.77	0.35	1.06
CC(C)(O)c1ccccc1CC[C@@H](SCC1(CC(=O)O)CC1)c1cccc(/C=C/c2ccc3ccc(Cl)cc3n2)c1 [Montelukast (sodium)]	0.87	0.59	1.13	0.16	0.02	1.25	0.45	0.97	1.39
COc1cc2c(NC3CCN(C(C)C)CC3)nc(N3CCC(F)(F)CC3)nc2cc1OCCCN1CCCC1	0.8	0.03	0.85	2.32	-0.29	1.18	1.81	3.34	1.97
CC#C[C@]1(O)CC[C@H]2[C@@H]3CCC4=CC(=O)CCC4=C3[C@@H](c3ccc(N(C)C)cc3)C[C@@]21C [Mifepristone]	0.03	0.61	0.28	-0.5	-0.59	0.7	-2.47	1.14	-0.01
